Literature values in US6869615B2, “Pharmaceutical formulations containing a non-steroidal antiinflammatory drug and a proton pump inhibitor” (Andrx Labs LLC, priority 2000, dated 2005).

Details: water solutions at pH-values less than three

half-life of degradation: shorter than ten minutes
Compound: COc1ccc2[nH]c([S+]([O-])Cc3ncc(C)c(OC)c3C)nc2c1 (stereo not shown) [omeprazole]
